# Test results as given in the supplement of paper PMC12819154, “High-throughput peptide-centric local stability assay extends protein–ligand identification to membrane proteins, tissues and bacteria” (Nature Structural & Molecular Biology, 2025).
# Protein sequences, listed by entry. Tags and fused reporters are not part of them. Lines headed by an entry give the natural chain unless they say otherwise; changes in a name come on top.
# UniProt Q8R344: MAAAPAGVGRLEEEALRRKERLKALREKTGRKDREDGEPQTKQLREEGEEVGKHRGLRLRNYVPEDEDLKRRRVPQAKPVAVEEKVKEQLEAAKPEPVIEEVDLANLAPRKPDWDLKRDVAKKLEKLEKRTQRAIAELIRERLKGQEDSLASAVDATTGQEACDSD
# UniProt Q8VDV3: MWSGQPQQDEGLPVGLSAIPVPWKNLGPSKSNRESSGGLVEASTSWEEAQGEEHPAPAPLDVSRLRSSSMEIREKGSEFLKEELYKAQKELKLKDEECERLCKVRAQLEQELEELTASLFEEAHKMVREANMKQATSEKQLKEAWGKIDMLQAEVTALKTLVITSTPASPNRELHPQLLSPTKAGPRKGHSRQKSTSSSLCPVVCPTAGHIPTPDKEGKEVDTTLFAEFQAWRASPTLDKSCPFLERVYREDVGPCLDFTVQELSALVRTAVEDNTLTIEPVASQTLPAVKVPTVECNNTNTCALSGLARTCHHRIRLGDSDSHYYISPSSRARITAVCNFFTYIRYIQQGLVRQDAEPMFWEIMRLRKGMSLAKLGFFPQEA
# UniProt Q8R5F7: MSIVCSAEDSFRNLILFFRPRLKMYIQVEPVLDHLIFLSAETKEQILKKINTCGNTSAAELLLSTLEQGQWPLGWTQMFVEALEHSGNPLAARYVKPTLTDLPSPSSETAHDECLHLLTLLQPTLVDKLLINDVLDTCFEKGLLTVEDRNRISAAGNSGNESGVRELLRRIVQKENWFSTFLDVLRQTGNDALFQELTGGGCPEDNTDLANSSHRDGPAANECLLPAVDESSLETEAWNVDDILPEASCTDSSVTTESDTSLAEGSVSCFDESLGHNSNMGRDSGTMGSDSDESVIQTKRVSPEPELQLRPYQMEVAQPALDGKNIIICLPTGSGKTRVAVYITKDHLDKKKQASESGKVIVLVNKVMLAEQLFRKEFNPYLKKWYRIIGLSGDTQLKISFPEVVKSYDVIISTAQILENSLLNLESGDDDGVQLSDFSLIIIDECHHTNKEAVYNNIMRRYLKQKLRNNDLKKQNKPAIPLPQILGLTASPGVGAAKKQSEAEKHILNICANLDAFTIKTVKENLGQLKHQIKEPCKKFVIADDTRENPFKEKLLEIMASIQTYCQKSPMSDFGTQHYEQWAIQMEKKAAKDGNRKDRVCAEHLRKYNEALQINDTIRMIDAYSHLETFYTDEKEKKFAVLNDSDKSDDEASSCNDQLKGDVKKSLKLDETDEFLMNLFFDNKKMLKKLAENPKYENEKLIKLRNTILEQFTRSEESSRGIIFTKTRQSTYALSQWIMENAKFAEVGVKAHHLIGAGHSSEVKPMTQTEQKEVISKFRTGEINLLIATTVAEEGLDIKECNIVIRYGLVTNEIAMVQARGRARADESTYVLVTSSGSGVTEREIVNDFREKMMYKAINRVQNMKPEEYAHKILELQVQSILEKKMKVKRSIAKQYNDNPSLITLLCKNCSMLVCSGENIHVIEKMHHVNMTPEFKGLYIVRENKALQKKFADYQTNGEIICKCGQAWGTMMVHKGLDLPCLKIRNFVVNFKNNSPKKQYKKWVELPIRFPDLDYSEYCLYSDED
# UniProt Q8VBT2: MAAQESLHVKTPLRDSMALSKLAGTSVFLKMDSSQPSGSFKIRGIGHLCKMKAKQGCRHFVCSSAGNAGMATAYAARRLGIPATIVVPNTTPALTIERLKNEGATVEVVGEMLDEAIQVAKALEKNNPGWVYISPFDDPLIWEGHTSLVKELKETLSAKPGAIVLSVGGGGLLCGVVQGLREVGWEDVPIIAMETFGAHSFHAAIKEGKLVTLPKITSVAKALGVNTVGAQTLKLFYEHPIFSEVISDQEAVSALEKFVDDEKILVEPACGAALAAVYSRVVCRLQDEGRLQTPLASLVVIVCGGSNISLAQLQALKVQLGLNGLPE
# UniProt Q8R5J9: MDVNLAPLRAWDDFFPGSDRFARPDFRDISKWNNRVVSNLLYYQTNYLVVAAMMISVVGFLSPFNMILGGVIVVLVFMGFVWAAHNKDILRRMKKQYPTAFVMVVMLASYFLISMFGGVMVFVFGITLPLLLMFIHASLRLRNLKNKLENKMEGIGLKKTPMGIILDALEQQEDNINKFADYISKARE
# UniProt Q8R332: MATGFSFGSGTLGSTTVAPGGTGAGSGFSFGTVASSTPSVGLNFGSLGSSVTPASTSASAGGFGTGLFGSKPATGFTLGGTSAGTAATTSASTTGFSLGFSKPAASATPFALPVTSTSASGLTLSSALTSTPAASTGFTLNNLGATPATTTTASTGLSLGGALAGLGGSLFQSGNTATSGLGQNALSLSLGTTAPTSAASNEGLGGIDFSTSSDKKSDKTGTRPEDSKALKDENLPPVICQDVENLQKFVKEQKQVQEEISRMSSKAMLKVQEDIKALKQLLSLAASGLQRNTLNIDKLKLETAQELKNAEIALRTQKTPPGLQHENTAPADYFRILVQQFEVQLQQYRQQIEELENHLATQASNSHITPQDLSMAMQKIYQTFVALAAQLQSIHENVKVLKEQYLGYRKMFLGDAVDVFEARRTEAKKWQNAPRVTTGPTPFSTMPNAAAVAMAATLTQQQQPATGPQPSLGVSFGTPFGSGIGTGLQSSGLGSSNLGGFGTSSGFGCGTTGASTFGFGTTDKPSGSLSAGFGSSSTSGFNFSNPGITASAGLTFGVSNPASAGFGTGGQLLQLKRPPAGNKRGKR
# UniProt Q8VDI7: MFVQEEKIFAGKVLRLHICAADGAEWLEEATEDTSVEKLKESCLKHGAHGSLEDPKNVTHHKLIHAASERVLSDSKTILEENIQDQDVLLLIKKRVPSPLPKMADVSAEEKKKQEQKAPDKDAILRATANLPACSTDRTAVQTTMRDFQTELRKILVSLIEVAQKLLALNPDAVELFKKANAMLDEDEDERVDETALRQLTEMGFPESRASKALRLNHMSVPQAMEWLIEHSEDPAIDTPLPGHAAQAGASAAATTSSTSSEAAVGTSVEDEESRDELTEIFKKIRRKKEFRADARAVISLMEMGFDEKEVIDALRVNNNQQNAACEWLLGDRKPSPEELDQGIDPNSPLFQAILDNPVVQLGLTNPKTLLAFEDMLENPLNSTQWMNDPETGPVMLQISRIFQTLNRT
# UniProt Q8VCB3: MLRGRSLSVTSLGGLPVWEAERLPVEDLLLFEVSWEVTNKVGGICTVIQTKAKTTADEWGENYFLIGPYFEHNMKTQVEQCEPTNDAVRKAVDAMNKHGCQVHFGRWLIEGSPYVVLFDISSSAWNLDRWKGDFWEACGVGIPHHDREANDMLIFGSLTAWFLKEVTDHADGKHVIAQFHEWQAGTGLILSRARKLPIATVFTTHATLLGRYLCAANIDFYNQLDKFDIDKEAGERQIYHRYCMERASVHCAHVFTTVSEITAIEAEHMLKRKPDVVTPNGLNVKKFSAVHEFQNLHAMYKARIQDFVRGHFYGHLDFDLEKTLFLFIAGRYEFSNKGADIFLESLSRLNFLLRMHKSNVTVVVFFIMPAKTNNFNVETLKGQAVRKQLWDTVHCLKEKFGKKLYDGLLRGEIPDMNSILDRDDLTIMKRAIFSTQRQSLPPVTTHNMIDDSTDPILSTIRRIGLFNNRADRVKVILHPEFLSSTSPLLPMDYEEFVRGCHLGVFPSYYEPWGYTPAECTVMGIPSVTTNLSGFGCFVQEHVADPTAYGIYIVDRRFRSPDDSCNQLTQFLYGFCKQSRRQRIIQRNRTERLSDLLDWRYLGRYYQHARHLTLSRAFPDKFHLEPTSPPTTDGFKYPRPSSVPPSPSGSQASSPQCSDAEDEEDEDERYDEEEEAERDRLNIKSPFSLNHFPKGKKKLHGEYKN
# UniProt Q8VDS4: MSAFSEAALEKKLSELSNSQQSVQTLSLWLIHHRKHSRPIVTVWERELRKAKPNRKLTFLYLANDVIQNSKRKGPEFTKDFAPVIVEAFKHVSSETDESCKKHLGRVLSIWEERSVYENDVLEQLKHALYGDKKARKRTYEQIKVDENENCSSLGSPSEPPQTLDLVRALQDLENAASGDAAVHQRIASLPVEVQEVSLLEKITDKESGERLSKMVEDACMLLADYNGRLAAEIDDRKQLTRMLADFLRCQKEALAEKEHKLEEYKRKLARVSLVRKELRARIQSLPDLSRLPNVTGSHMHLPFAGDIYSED
# UniProt Q8VE38: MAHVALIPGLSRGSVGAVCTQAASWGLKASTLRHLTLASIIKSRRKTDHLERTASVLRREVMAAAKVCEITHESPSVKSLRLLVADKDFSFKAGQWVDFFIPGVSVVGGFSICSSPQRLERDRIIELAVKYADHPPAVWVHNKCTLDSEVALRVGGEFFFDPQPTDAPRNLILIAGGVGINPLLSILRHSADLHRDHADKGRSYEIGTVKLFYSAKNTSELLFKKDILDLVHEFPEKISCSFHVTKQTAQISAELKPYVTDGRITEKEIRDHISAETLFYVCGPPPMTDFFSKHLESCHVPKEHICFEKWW
# UniProt Q8VBU8: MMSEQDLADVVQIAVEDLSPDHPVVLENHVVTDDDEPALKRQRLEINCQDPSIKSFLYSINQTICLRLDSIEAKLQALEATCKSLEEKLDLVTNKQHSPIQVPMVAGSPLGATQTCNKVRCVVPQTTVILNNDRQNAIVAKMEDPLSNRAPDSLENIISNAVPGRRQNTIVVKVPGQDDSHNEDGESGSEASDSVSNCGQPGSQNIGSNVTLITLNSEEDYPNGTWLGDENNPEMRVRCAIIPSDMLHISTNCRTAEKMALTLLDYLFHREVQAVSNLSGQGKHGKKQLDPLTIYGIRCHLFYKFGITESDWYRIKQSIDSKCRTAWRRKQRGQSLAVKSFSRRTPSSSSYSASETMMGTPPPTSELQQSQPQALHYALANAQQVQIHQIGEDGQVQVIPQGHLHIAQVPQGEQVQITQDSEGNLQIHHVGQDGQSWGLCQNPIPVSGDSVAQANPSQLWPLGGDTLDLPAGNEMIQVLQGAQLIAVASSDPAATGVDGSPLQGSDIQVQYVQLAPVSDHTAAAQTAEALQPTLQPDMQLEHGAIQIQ
# UniProt Q8VCE1: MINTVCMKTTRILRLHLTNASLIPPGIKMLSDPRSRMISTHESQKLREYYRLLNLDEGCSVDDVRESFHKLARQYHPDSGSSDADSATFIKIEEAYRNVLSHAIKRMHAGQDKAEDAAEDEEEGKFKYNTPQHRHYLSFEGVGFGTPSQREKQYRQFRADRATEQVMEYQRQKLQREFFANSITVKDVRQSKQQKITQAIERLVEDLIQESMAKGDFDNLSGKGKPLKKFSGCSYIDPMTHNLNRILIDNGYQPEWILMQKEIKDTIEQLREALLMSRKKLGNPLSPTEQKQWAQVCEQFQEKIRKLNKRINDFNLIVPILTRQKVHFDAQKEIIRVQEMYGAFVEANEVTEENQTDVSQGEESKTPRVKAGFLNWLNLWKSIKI
# UniProt Q8VEG4: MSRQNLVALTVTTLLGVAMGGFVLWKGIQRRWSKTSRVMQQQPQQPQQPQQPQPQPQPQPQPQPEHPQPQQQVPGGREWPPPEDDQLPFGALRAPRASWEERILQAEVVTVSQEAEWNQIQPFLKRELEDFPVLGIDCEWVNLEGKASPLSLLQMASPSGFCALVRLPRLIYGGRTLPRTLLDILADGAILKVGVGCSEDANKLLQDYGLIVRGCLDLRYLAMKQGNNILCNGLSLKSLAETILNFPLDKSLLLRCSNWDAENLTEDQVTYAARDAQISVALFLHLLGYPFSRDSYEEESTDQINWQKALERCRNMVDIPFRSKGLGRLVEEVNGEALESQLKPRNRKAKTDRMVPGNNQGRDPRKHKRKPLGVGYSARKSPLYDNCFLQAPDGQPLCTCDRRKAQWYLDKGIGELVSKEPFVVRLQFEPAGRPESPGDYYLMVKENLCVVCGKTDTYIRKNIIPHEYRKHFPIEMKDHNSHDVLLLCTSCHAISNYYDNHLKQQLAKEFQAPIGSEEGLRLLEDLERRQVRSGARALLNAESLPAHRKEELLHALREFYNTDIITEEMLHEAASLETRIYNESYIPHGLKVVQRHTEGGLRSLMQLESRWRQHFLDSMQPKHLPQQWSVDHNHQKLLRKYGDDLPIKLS
# UniProt Q8VE88: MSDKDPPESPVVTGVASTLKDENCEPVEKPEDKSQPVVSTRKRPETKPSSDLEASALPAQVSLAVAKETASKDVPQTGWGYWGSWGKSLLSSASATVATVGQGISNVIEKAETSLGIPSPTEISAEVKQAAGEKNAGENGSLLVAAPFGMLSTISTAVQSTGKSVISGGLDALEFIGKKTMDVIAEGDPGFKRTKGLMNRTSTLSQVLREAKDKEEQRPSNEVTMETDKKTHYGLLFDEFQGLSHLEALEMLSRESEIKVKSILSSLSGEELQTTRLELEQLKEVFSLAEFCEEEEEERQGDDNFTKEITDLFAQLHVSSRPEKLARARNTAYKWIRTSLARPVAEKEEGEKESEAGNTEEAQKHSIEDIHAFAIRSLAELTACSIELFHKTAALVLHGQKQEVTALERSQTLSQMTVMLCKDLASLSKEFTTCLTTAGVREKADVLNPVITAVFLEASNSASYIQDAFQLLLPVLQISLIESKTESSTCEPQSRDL
# The list shows a part of the results. Most entries show no effect beyond the scatter of the controls.
# Compound: CN[C@@H]1C[C@H]2O[C@@](C)([C@@H]1OC)n1c3ccccc3c3c4c(c5c6ccccc6n2c5c31)C(=O)NC4 [staurosporine]
# Assay: log2 fold change of tryptic peptide abundance, ligand vs vehicle (limited proteolysis) (log2 ratio); higher = more trypsin-susceptible (destabilized)
# Details: ligand concentration: 20 uM; sample: mouse liver crude lysate; replicate design: treated separately
row,Target,log2 fold change
1,"UniProt Q8VD65 (peptide sequence: TKQEPDEKR, peptide start residue: 836)",0.585
2,"UniProt Q8R344 (peptide sequence: VPQAKPVAVEEK, peptide start residue: 74)",0.341
3,"UniProt Q8VDV3 (peptide sequence: GSEFLKEELYK, peptide start residue: 76)",0.517
4,"UniProt Q8R5F7 (peptide sequence: NCSMLVCSGENIHVIEK, peptide start residue: 909)",0.33
5,"UniProt Q8VBT2 (peptide sequence: ILVEPACGAALAAVYSR, peptide start residue: 264)",0.2
6,"UniProt Q8R5J9 (peptide sequence: DISKWNNR, peptide start residue: 28)",0.341
7,"UniProt Q8VBV3 (peptide sequence: HLVVPGDTITTDTGFMR, peptide start residue: 25)",0.31
8,"UniProt Q8R332 (peptide sequence: VLKEQYLGYR, peptide start residue: 400)",0.371
9,"UniProt Q8VDI7 (peptide sequence: ILVSLIEVAQK, peptide start residue: 155)",0.129
10,"UniProt Q8VCH8 (peptide sequence: IKQQIALDR, peptide start residue: 267)",0.116
11,"UniProt Q8VCB3 (peptide sequence: KLPIATVFTTHATLLGR, peptide start residue: 195)",-0.202
12,"UniProt Q8VDS4 (peptide sequence: IQSLPDLSR, peptide start residue: 283)",0.346
13,"UniProt Q8VC30 (peptide sequence: NYTGDRLNFGLAMEQAK, peptide start residue: 110)",-0.119
14,"UniProt Q8VE38 (peptide sequence: NTSELLFKK, peptide start residue: 217)",-0.327
15,"UniProt Q8VDF3 (peptide sequence: ESVVNLENFKK, peptide start residue: 298)",0.175
16,"UniProt Q8R2U2 (peptide sequence: EKPLGFDLR, peptide start residue: 306)",-0.171
17,"UniProt Q8R313 (peptide sequence: KNNIFAQFR, peptide start residue: 766)",0.327
18,"UniProt Q8VCH0 (peptide sequence: ARDCLIPMGITSENVAER, peptide start residue: 174)",-0.101
19,"UniProt Q8VBU8 (peptide sequence: CAIIPSDMLHISTNCR, peptide start residue: 239)",0.46
20,"UniProt Q8VCM4 (peptide sequence: WYILCEKIR, peptide start residue: 362)",0.393
21,"UniProt Q8VCE1 (peptide sequence: KKLGNPLSPTEQK, peptide start residue: 279)",-0.607
22,"UniProt Q8VEG4 (peptide sequence: HFPIEMK, peptide start residue: 471)",0.596
23,"UniProt Q8VE97 (peptide sequence: SKPNVPAESR, peptide start residue: 445)",-0.103
24,"UniProt Q8VE88 (peptide sequence: KTMDVIAEGDPGFKR, peptide start residue: 179)",0.204
25,"UniProt Q8R2V3 (peptide sequence: KPWGVNICTVQLKR, peptide start residue: 275)",0.454

# Another view of some results above.
row	Target	log2 fold change
6	UniProt Q8R5J9 (peptide sequence: DISKWNNR, peptide start residue: 28)	0.341
9	UniProt Q8VDI7 (peptide sequence: ILVSLIEVAQK, peptide start residue: 155)	0.129
